# Results of single-concentration screens

Protein sequences, listed by entry. Tags and fused reporters are not part of them.
UniProt P9WNZ1, whole entry: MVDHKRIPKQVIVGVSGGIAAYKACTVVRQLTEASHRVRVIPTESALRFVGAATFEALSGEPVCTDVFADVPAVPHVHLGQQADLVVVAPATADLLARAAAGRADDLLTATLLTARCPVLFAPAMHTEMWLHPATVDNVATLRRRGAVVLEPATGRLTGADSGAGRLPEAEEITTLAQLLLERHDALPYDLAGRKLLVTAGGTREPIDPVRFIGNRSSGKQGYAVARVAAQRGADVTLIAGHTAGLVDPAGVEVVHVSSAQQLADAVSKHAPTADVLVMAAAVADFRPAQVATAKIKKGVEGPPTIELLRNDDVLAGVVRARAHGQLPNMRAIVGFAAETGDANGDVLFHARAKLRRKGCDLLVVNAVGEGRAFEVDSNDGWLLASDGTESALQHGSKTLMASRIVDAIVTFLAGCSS
UniProt P9WFT3, whole entry: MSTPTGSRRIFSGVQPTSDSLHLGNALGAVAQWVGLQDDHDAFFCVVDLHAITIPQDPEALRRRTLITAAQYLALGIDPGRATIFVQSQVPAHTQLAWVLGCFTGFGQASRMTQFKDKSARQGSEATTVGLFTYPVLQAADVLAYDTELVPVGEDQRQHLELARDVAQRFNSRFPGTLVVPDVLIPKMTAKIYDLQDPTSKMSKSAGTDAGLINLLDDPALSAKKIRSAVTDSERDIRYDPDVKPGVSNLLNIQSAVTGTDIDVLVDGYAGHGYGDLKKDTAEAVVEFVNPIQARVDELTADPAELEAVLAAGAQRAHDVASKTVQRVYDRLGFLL

The values are deposited in ChEMBL (CHEMBL3988442, “University of Dundee, Small-Polar-MMV Screening Library” (2021)).

The filed quantity is “Percent Effect” (%). The controls that fix the scale are not given in the record; negative values are as filed. The compounds are a random part of those screened.

CoaBC: 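Enzyme assay of CoaBC with a phosphate dye (Biomol Green) read at 650 nm. Target: Coenzyme A biosynthesis protein CoaBC, Mycobacterium tuberculosis (UniProt P9WNZ1). Tested at 30 µM. Higher reads as stronger inhibition, judged from the few compounds that gave an IC50. Most strong results did not repeat in a second test. About 67,000 compounds were tested under these conditions; 0.06% (about 40) showed 50% or more at least once.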
MtTrpRS: 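Enzyme assay of tryptophanyl-tRNA synthetase; the read-out is not stated. Target: Tryptophan-tRNA ligase, Mycobacterium tuberculosis (UniProt P9WFT3). Tested at 10 µM. Higher most likely means stronger inhibition; the record gives no direction and few retests gave an IC50. Of about 65,000 compounds tested this way, about 64 (0.098%) reached 50% or more in at least one test.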

- CN(C)C(=O)CO[C@H]1CN(Cc2ccccc2)[C@@H]2CCCO[C@H]12 : CoaBC: -5.383%; MtTrpRS: 2.651%
- O=C(NCC1SCCc2ccccc21)c1cscn1 (stereo not given) : CoaBC: 13.91%; MtTrpRS: 2.216%
- Nc1c(N2CCCC2)ncnc1N1CCOCC1 : CoaBC: -2.184%
- O=C(CCNC(=O)c1ccoc1)Nc1cc(F)ccc1F : CoaBC: -2.376%; MtTrpRS: 1.221%
- c1ccc(CCCN2CCCC(Nc3cnc4ccccc4n3)C2)cc1 (stereo not given) : CoaBC: -7.744%; MtTrpRS: 0.5161%
- COc1cc(C(=O)Nc2nc(C)no2)ccc1OC1CCCC1 : CoaBC: 0.5249%; MtTrpRS: 4.241%
- N#Cc1cc(Cl)ccc1N1CCN(C(=O)C2CCC2)CC1 : CoaBC: 6.622%; MtTrpRS: 0.5833%
- Cc1ccc(OCCN(C)C(=O)NC(C)c2nncn2C)cc1 (stereo not given) : CoaBC: 1.828%; MtTrpRS: -4.112%
- CCCOCCn1ncc(N2CCCC2)cc1=O : CoaBC: -0.1248%; MtTrpRS: 1.72%
- CCc1cn[nH]c1C1CCCN(C(=O)c2cc(C#N)c(=O)[nH]c2C)C1 (stereo not given) : CoaBC: 16.52%; MtTrpRS: -1.06%
- Cc1cccc(C)c1NC(=O)c1cc(S(N)(=O)=O)c(C)o1 : CoaBC: 8.418%; MtTrpRS: 0.9032%
- O=C(c1ccc[nH]1)N1CCOCC12CCCC2 : CoaBC: -3.704%; MtTrpRS: 0%
- CC(C)C1CN(C(=O)Nc2cnn(CC(F)F)c2)CCS1 (stereo not given) : CoaBC: 7.923%; MtTrpRS: 10.1%
- COC(=O)N1CCCC(C(=O)N(C)C)C1 (stereo not given) : CoaBC: -0.8147%; MtTrpRS: -4.46%
- Cn1ccc(C(=O)NC2CCC23CCN(C(=O)c2cnccn2)CC3)c1 (stereo not given) : CoaBC: 2.538%; MtTrpRS: -3.045%
- COCc1ccccc1C(=O)NCC(c1c(F)cccc1F)N(C)C (stereo not given) : CoaBC: -7.727%; MtTrpRS: 0.4461%
- Cc1ccc(CN2CCc3ncnc(-c4ccc(F)cc4)c3CC2)o1 : CoaBC: 4.188%; MtTrpRS: -0.3148%
- O=C(c1cccc(C(F)(F)F)c1)N1CC(=O)N(C2CCC2)CC(O)C1 (stereo not given) : CoaBC: 1.695%
- Cc1cnc(-n2cnnc2)c(-c2cccc3c2CCNC3)c1 : CoaBC: 12.4%; MtTrpRS: 1.644%
- CCc1nnsc1C(=O)N1CCCN(Cc2cnn(CC)c2)CC1 : CoaBC: -0.6479%; MtTrpRS: 0.2441%
- COc1cc(C(=O)N2CCC(c3n[nH]c(C)n3)CC2)cc(OC)c1C : CoaBC: -5.216%; MtTrpRS: -9.84%
- COC(=O)c1cccc(S(=O)(=O)NC(=O)c2ccccc2F)c1 : CoaBC: -4.783%; MtTrpRS: -4.913%
- Cn1c(N)c2c(=O)n(C)c(-c3ccc(Cl)cc3)cc2c(C#N)c1=O : CoaBC: 3.579%; MtTrpRS: 2.529%
- CC(C)Nc1ncnc2c1CCN(Cc1ccoc1)CC2 : CoaBC: 8.471%; MtTrpRS: -3.98%
- O=C(CN1CCOC(CNc2cccnn2)C1)NCc1cccs1 (stereo not given) : CoaBC: -2.366%; MtTrpRS: -1.838%
- CS(=O)(=O)N1CCCc2sc(C(=O)NC3CC3)nc21 : CoaBC: 3.704%; MtTrpRS: -8.333%
- O=c1[nH]c2ccccc2c2c1CCO2 : CoaBC: 0%; MtTrpRS: 5.302%

Some entries from above, unchanged:

SMILES,CoaBC,MtTrpRS
COc1cc(C(=O)N2CCC(c3n[nH]c(C)n3)CC2)cc(OC)c1C,-5.216%,-9.84%
CC(C)Nc1ncnc2c1CCN(Cc1ccoc1)CC2,8.471%,-3.98%